Test results: patent US8609700B2, “Pyridine compounds for controlling invertebrate pests I” (BASF SE, priority 2010, dated 2013)
Some of these results come from one statement about several compounds together.

Columns and labels:
Format in all cases: in vivo
[1] = system: Boll Weevil (Anthonomus grandis); experiment: Boll weevil, insect diet in 24-well-microtiter plates; conditions: test solution 2500 mg/L; sprayed onto insect diet; 5 days
Description: II.5 Boll Weevil (Anthonomus grandis)
The compounds were formulated in 75:25 (vol/vol) water:DMSO.
For evaluating control of boll weevil (Anthonomus grandis) the test unit consisted of 24-well-microtiter plates containing an insect diet and 20-30 A. grandis eggs. Different concentrations of formulated compounds were sprayed onto the insect diet at 20 μl, using a custom built micro atomizer, at two replications. After application, the microtiter plates were incubated at 23±1° C. and 50±5% relative humidity for 5 days. Egg and larval mortality was then visually assessed.

[2] = system: Cowpea Aphid (Aphis craccivora); experiment: Cowpea aphid, potted cowpea plants sprayed; conditions: 300 ppm, population reduction assessed after 24, 72, and 120 hours
[3] = system: Green Peach Aphid (Myzus persicae, Mixed Life Stages); experiment: Green peach aphid, method a) (pepper leaves dipped); conditions: 300 ppm; pepper plant leaves dipped; after 5 days
[4] = system: Cotton Aphid (Aphis gossypii, Mixed Life Stages); experiment: Cotton aphid, method a) (cotyledons dipped); conditions: 300 ppm, after 5 days
[5] = system: Vetch aphid (Megoura viciae); experiment: Vetch aphid, bean leaf disks in microtiterplates; conditions: test solution 2500 mg/L; bean leaf disks sprayed; 6 days
[6] = system: Green Peach Aphid (Myzus persicae, Mixed Life Stages); experiment: Green peach aphid, method b) (electrostatic sprayer); conditions: 300 ppm; infested bell pepper plants sprayed; after 5 days

| Compound | mortality (egg and larval) [1] | mortality in comparison with untreated controls [2] | mortality in comparison with untreated controls [4] | mortality [5] | also measured |
| --- | --- | --- | --- | --- | --- |
| CN(C(=O)c1ccc(Cl)s1)c1cccnc1 [Compound 16] | at least 50% | – | – | – | – |
| O=C(Nc1cccnc1)c1ccsc1 [Compound 18] | – | at least 90% | at least 75% | at least 90% | mortality in comparison with untreated controls [3]: at least 90% |
| O=C(Nc1cccnc1)c1ccc([N+](=O)[O-])o1 [Compound 6] | at least 50% | – | – | at least 90% | – |
| O=C(Nc1cccnc1)c1ccc(Br)o1 [Compound 3] | – | – | at least 75% | – | – |
| O=C(Nc1cccnc1)c1cscc1C(F)(F)F [Compound 26] | at least 50% | – | – | at least 90% | mortality in comparison with untreated controls [6]: at least 75% |
| O=C(Nc1cccnc1)c1cc(Br)cs1 [Compound 9] | – | at least 90% | at least 75% | – | – |
| O=C(Nc1cccnc1)c1cc(Cl)sc1Cl [Compound 22] | at least 50% | – | – | – | – |
| O=C(Nc1cccnc1)c1sccc1Cl [Compound 4] | at least 50% | – | at least 75% | – | – |
| Cc1cc(C(=O)N(C)c2cccnc2)c(C)o1 [Compound 33] | – | – | – | at least 90% | mortality in comparison with untreated controls [6]: at least 75% |
| O=C(Nc1cccnc1)c1ccc(Cl)s1 [Compound 1] | – | at least 90% | at least 75% | – | – |
| O=C(Nc1cccnc1)c1ccsc1Br [Compound 20] | at least 50% | – | – | at least 90% | – |
| CN(C(=O)c1ccc(-c2cccc(C(F)(F)F)c2)o1)c1cccnc1 [Compound 64] | – | at least 90% | – | – | mortality in comparison with untreated controls [6]: at least 75% |
| Cc1occc1C(=O)Nc1cccnc1 [Compound 17] | – | at least 90% | at least 75% | at least 90% | – |
| O=C(Nc1cccnc1)c1ccc[nH]1 [Compound 12] | at least 50% | at least 90% | – | – | – |
| CC(C)c1ccc(OCc2ccc(C(=O)Nc3cccnc3)o2)cc1 [Compound 2] | – | – | at least 75% | – | – |
| Cc1cc(C(=O)Nc2cccnc2)c(C)s1 [Compound 25] | – | at least 90% | at least 75% | at least 90% | – |
| O=C(Nc1cccnc1)c1sccc1Br [Compound 8] | – | – | – | at least 90% | – |
| O=C(Nc1cccnc1)c1ccsc1Cl [Compound 21] | at least 50% | – | at least 75% | – | – |
| CC(C)c1cc(C(=O)Nc2cccnc2)cs1 [Compound 24] | – | – | at least 75% | at least 90% | – |
| CN(C(=O)c1ccoc1)c1cccnc1 [Compound 29] | at least 50% | – | – | – | – |
| O=C(Nc1cccnc1)c1sccc1C(F)(F)F [Compound 7] | – | at least 90% | – | – | mortality in comparison with untreated controls [6]: at least 75% |
| Cn1cccc1C(=O)Nc1cccnc1 [Compound 11] | at least 50% | at least 90% | – | at least 90% | – |
| O=C(Nc1cccnc1)c1ccc(C(F)(F)F)s1 [Compound 10] | – | – | at least 75% | at least 90% | – |
| Cc1cc(C(=O)Nc2cccnc2)c(C)o1 [Compound 19] | at least 50% | at least 90% | at least 75% | at least 90% | mortality in comparison with untreated controls [3]: at least 90% |
| CN(C(=O)c1sccc1Cl)c1cccnc1 [Compound 13] | at least 50% | – | – | – | – |
| O=C(Nc1cccnc1)c1ccco1 [Compound 5] | at least 50% | – | – | – | – |
| CN(C(=O)c1ccsc1)c1cccnc1 [Compound 32] | – | at least 90% | – | – | – |
| Cc1occc1C(=O)N(C)c1cccnc1 [Compound 30] | – | at least 90% | – | at least 90% | – |
